# Reference: PubChem BioAssay AID651640 (Broad Institute, 2012)
# Among all 350,000 compounds or so, about 6,000 (1.7%) were called active. Inconclusive means that the source gave no clear call. Such entries were picked first, then a sample of the others. Rule as the data show it: active = CPE inhibition above about 20% (passing the limit was not always enough); inconclusive = no clear call, values can overlap the other calls; tested in BHK-21 cells.
# Assay: protection of cells from dengue 2 killing – plate reader, single concentration, primary screen (AID 651640);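 also: 0% = median of neutral control wells and 100% = median of positive control wells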
# Details: DENV2-infected cells, cytopathic effect rescue, at 9.99 µM, stronger effect = higher value
row,Structure (SMILES),CPE inhibition
1,C[C@H]1CN([C@@H](C)CO)C(=O)c2cc(-c3cccc(C#N)c3)cnc2O[C@@H]1CN(C)C(=O)c1ccccn1,inconclusive: 22.9%
2,O=C(Cn1cnc(S(=O)(=O)N2CCCC2)c1)Nc1cccc(Br)c1,inactive: 7.33%
3,Cc1ccc(S(=O)(=O)Nc2ccc3c(c2)C(=O)N([C@@H](C)CO)C[C@@H](C)[C@@H](CN(C)C(=O)Nc2ccc(C(F)(F)F)cc2)OCCCC[C@H](C)O3)cc1,inactive: 12.5%
4,O=c1cc(O)cc2n1CCC2,inconclusive: 20.9%
5,CCC(=O)Nc1ccc2c(c1)C(=O)N(C)C[C@@H](OC)[C@H](C)CN(Cc1ccccc1F)[C@H](C)CO2,inactive: 1.17%
6,CCC(ONc1ccccc1C(F)(F)F)(C(=O)NN(C)C)c1ccccc1 (configuration not stated),inconclusive: 38.2%
7,C[C@@H]1CCCCO[C@@H](CN(C)CC2CCCCC2)[C@H](C)CN([C@H](C)CO)C(=O)c2cc(NC(=O)C3CCCCC3)ccc2O1,inactive: -14.3%
8,Cc1ccc(N2C(=O)N(CC(=O)Nc3cc(F)ccc3C)C(=O)C2C)cc1 (configuration not stated),inconclusive: 24%
9,COc1cccc(C2C(C(=O)c3cc4ccccc4o3)=C(O)C(=O)N2c2cc(C)on2)c1 (configuration not stated),inconclusive: 23.7%
10,O=C(C[C@@H]1CC[C@H]2[C@@H](COC[C@@H](O)CN2Cc2cccc(C(F)(F)F)c2)O1)NCc1ccccc1,inconclusive: 44.3%
11,CC(C)Cn1c(SCC(=O)Nc2cccnc2Cl)nnc1-c1ccco1,inconclusive: 22.9%
12,COc1ccc2c3c(n(C)c2c1)[C@H](CO)NCC31CN(C(C)=O)C1,inconclusive: 37.8%
13,N#Cc1cc(NC2CCCC2)c([N+](=O)[O-])cc1C#N,inconclusive: 45.8%
14,COc1ccc2c3c(n(C)c2c1)[C@@H](CO)N(Cc1ccccc1)CC31CCN(C)CC1,active: 56.5%
15,O=C(O)C(Cc1c[nH]c2ccccc12)N1C(=O)c2ccccc2C1=O (configuration not stated),inconclusive: 20.2%
16,COc1cc(CN2CCC(C(=O)NC(c3ccc(F)cc3)c3ccc4ccccc4n3)CC2)cc(OC)c1 (configuration not stated),inconclusive: 31.6%
17,Cc1ccc(NC(=O)Cn2c(=O)c3cccn3c3ccccc32)cc1,inconclusive: 26.5%
18,N#C[C@H]1[C@H](c2ccccc2)[C@H](CO)N1C(=O)CCN1CCCCC1,inactive: -2.82%
19,COc1cc(/C=C/C(=O)OCC(=O)NCCCc2ccccc2)cc(OC)c1OC,inactive: 12.5%
20,C[C@@H]1CCCCO[C@H](CN(C)Cc2ccc3c(c2)OCO3)[C@H](C)CN([C@@H](C)CO)C(=O)c2cc(NC(=O)Nc3ccc4c(c3)OCO4)ccc2O1,inactive: -26.6%
21,COc1ccc(-n2c(SC3CCOC3=O)nc3ccccc3c2=O)cc1Cl (configuration not stated),inconclusive: 20.2%
22,COc1ccccc1CNC(=S)Nc1ccc2nc(N3CCN(C)CC3)cc(C)c2c1,inactive: -15%
23,N#Cc1ccccc1OCC(=O)Nc1ccccc1C(=O)NC1CC1,inconclusive: 23.8%
24,O=C(C[C@@H]1CC[C@@H](NC(=O)c2ccc(F)cc2)[C@@H](CO)O1)NCCc1ccncc1,active: 23.3%

# A draw from above in order of SMILES length, falling.
row,Structure (SMILES),CPE inhibition
20,C[C@@H]1CCCCO[C@H](CN(C)Cc2ccc3c(c2)OCO3)[C@H](C)CN([C@@H](C)CO)C(=O)c2cc(NC(=O)Nc3ccc4c(c3)OCO4)ccc2O1,inactive: -26.6%
7,C[C@@H]1CCCCO[C@@H](CN(C)CC2CCCCC2)[C@H](C)CN([C@H](C)CO)C(=O)c2cc(NC(=O)C3CCCCC3)ccc2O1,inactive: -14.3%
1,C[C@H]1CN([C@@H](C)CO)C(=O)c2cc(-c3cccc(C#N)c3)cnc2O[C@@H]1CN(C)C(=O)c1ccccn1,inconclusive: 22.9%
10,O=C(C[C@@H]1CC[C@H]2[C@@H](COC[C@@H](O)CN2Cc2cccc(C(F)(F)F)c2)O1)NCc1ccccc1,inconclusive: 44.3%
5,CCC(=O)Nc1ccc2c(c1)C(=O)N(C)C[C@@H](OC)[C@H](C)CN(Cc1ccccc1F)[C@H](C)CO2,inactive: 1.17%
9,COc1cccc(C2C(C(=O)c3cc4ccccc4o3)=C(O)C(=O)N2c2cc(C)on2)c1 (configuration not stated),inconclusive: 23.7%
8,Cc1ccc(N2C(=O)N(CC(=O)Nc3cc(F)ccc3C)C(=O)C2C)cc1 (configuration not stated),inconclusive: 24%
12,COc1ccc2c3c(n(C)c2c1)[C@H](CO)NCC31CN(C(C)=O)C1,inconclusive: 37.8%
15,O=C(O)C(Cc1c[nH]c2ccccc12)N1C(=O)c2ccccc2C1=O (configuration not stated),inconclusive: 20.2%
6,CCC(ONc1ccccc1C(F)(F)F)(C(=O)NN(C)C)c1ccccc1 (configuration not stated),inconclusive: 38.2%
21,COc1ccc(-n2c(SC3CCOC3=O)nc3ccccc3c2=O)cc1Cl (configuration not stated),inconclusive: 20.2%
11,CC(C)Cn1c(SCC(=O)Nc2cccnc2Cl)nnc1-c1ccco1,inconclusive: 22.9%
23,N#Cc1ccccc1OCC(=O)Nc1ccccc1C(=O)NC1CC1,inconclusive: 23.8%

# Going on with the list:

row,Structure (SMILES),CPE inhibition
1,Cn1c(N)c(C(=O)CSc2nnc(C3CC3)n2-c2ccccc2)c(=O)[nH]c1=O,inconclusive: 48.8%
2,COc1ccccc1CNC(=O)C[C@@H]1C[C@H]2c3cc(NC(=O)Nc4ccc(C(F)(F)F)cc4)ccc3O[C@H]2[C@@H](CO)O1,active: 35.7%
3,O=C(NCc1ccco1)c1ccc(OC2CCN(Cc3ccccn3)CC2)cc1,inconclusive: 25.6%
4,Cn1c(NC(=O)CC2CCCCC2)cc(=O)n(C)c1=O,inconclusive: 25.4%
5,COc1ccc(-n2nc([N+](=O)[O-])c(=NCc3ccc4c(c3)OCO4)n2O)cc1,active: 32.5%
6,CN(C)C(=O)c1cccc(-c2ccccc2[C@H]2[C@@H](C#N)N(C(=O)C3CC3)[C@@H]2CO)c1,active: 69.4%
7,COc1ccc2[nH]cc(CC(=O)O)c2c1,inconclusive: 94.3%
8,COc1ccc(C(=O)Nc2c(C)cc(C)cc2C)cc1OC,inconclusive: 24.7%
9,COc1cccc(S(=O)(=O)N2CCCCN3[C@H](CO)[C@H](c4ccc(-c5cccnc5)cc4)[C@H]3C2)c1,inactive: -8.54%
10,N#C[C@H]1[C@H](c2ccc(-c3cncnc3)cc2)[C@@H](CO)N1C(=O)CN1CCOCC1,inconclusive: 38.6%
11,O=C(COC(=O)c1ccc([N+](=O)[O-])s1)c1ccc[nH]1,inconclusive: 20.9%
12,C[C@@H]1CN([C@@H](C)CO)C(=O)c2cc(NC(=O)Nc3ccc(F)cc3)ccc2O[C@H]1CN(C)C(=O)Nc1ccc(F)cc1,inconclusive: 39.1%
13,COc1cccc(-n2c(Cc3cc(=O)[nH]c(=O)[nH]3)nnc2SCC(=O)N2CCCCCC2)c1,active: 68.6%
14,CCn1c(SCC(=O)Nc2ccc(N(C)C)cc2)nnc1-c1ccco1,inconclusive: 27.5%
15,O=C(O)c1cc2c(o1)CCC/C2=N\O,inactive: 4.29%
16,O=C(C[C@@H]1CC[C@H]2[C@@H](COC[C@H](O)CN2CC2CCOCC2)O1)N1CCOCC1,inactive: -3.5%
17,CC(=O)Nc1ccc(NC(=O)CSc2ncc(C(=O)Nc3ccc(F)cc3)c(=O)n2C)cc1,active: 30.4%
18,C[C@@H]1CN([C@@H](C)CO)C(=O)c2cc(NC(=O)Nc3cccc4ccccc34)ccc2O[C@@H](C)CCCCO[C@H]1CN(C)C(=O)C1CCCCC1,active: 22.2%
19,Cc1occc1C(=O)N/N=C/C=C/c1ccc(N(C)C)cc1,inconclusive: 43.5%
20,CC(C)NC(=O)N(C)C[C@H]1Oc2cc(Br)ccc2S(=O)(=O)N([C@H](C)CO)C[C@H]1C,inconclusive: 65.4%
21,C[C@@H]1CN([C@H](C)CO)C(=O)Cc2cc(NS(=O)(=O)c3ccc(F)cc3)ccc2O[C@H]1CN(C)S(=O)(=O)c1ccc(F)cc1,inactive: 5.45%
22,Cc1ccc(S(=O)(=O)NCC[C@@H]2CC[C@H](NC(=O)c3cccc(F)c3)[C@H](CO)O2)cc1,inactive: 0.0135%
23,CN(C(=O)c1cccc(NC(=O)Cc2ccc(NC(=O)C3CCN(C(=O)c4ccccc4)CC3)cc2)c1)C1CCCC1,inconclusive: 72.5%
